The source of these data is paper PMC7862700.

Protein sequences, listed by entry. Tags and fused reporters are not part of them. Lines headed by an entry give the natural chain unless they say otherwise; changes in a name come on top.
UniProt P50549: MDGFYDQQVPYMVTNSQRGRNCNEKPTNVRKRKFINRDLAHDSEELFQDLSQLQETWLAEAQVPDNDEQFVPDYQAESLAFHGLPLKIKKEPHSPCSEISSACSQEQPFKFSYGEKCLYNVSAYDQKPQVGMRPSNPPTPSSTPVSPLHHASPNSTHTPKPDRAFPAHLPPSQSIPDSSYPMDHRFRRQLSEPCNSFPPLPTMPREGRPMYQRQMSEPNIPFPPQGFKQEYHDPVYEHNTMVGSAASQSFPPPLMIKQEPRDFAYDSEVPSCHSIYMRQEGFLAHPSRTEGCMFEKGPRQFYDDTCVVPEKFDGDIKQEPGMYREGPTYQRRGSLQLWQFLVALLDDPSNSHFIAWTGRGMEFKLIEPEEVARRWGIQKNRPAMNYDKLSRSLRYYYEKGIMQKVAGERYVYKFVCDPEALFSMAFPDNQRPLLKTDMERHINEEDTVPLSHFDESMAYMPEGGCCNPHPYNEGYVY
UniProt P32519: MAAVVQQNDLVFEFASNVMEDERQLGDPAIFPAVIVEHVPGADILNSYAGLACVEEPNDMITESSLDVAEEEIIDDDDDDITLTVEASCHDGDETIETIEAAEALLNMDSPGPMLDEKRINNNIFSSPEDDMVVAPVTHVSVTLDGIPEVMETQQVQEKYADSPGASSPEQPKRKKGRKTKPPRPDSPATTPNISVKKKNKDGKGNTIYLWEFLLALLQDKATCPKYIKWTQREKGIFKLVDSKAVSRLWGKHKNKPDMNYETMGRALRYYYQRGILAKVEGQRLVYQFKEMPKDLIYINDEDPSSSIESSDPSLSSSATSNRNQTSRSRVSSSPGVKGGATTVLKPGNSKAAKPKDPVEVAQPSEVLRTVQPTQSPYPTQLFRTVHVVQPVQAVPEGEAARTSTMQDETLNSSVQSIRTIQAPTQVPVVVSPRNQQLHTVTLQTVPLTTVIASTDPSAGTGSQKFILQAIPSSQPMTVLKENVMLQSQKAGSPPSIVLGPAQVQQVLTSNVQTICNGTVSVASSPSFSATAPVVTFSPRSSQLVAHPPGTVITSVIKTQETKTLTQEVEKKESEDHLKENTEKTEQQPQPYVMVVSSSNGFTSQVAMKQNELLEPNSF

The list shows a part of the results, in another mix than the full data. For part of these data: At the low end of the ranking, values are background and their order means little. Some of the results follow. For part of these data: Construct or isoform of the protein are uncertain.

Common to all, as to test: DAPPL (digital affinity profiling via proximity ligation, sequencing)
Common to all, as to details: 10 mM Tris-HCl pH 7.5, 50 mM NaCl, 1 mM DTT, 4% glycerol, room temperature, 30 min; GST-TFs on glutathione beads, 16-mer random dsDNA library, 0.1% …; high values mean tight binding; double strand, one strand shown; scale: fold enrichment (6-mer frequency, TF over GST control)

One assay addresses T1, ERG (UniProt P11308).
T1 sequence: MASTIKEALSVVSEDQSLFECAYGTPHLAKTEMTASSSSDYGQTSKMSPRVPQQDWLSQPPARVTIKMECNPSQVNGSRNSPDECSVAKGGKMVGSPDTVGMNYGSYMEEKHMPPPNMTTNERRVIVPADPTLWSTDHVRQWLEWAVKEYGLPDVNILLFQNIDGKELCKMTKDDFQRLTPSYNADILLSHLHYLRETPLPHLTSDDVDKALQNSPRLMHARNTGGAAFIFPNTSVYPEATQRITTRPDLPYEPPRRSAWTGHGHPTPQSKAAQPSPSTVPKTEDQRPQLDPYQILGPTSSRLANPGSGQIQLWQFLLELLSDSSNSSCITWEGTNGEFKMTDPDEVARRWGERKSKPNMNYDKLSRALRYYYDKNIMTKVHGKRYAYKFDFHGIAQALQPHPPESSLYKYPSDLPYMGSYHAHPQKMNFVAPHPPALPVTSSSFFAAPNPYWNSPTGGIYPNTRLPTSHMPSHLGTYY

In another assay the target is T2, ETV4 (UniProt P43268).
T2 sequence: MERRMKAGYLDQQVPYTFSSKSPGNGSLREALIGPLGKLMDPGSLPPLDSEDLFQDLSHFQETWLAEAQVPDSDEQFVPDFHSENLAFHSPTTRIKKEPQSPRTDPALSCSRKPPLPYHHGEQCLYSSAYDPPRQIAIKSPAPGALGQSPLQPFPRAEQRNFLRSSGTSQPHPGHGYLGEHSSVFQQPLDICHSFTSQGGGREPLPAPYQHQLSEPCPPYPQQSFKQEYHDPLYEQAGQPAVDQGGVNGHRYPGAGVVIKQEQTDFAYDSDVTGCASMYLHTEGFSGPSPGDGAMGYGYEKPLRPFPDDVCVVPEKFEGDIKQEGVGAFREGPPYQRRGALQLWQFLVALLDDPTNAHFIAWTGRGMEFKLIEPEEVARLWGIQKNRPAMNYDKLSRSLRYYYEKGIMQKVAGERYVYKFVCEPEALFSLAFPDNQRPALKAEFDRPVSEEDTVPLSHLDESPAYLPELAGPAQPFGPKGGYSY

The next assay has as its target ETV1 (UniProt P50549).
In a further assay the target is T3, ERF (UniProt P50548).
T3 sequence: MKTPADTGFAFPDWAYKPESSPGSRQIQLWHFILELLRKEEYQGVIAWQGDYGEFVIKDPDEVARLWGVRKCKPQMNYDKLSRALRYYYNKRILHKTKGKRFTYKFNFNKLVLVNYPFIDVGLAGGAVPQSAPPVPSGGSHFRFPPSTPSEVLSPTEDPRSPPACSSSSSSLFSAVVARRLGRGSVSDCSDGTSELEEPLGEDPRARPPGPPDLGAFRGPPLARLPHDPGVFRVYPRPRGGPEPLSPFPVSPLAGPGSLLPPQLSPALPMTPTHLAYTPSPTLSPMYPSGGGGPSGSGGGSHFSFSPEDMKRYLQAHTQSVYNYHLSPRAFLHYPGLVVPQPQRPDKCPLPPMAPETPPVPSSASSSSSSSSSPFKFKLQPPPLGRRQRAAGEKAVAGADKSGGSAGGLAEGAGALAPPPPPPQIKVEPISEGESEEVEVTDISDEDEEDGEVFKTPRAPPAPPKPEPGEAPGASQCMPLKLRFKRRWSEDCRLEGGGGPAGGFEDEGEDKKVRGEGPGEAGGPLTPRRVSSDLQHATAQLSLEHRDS

In another assay the target is ELF1 (UniProt P32519).

On to AAACTG, for which the binding signal with ERG was 1.01; with ETV4, 1.08.

For the sequence TTCCGA, the figures for the binding signal with ERG, in the assay with ETV4 and with ETV1 were 1.66, 1.49 and 1.63, respectively.

For CGCTTA, the binding signal with ERG was determined as 1.15; with ETV4 it was 1.12; with ETV1 it was 1.24.

Consider ATTTGT, for which the binding signal came to 1.28 with ERG and 1.45 with ETV4.

On to CCCATA, for which the binding signal with ERG turned out to be 1.24; in the assay with ETV4, 1.3.

With TAGCGA, the binding signal is 0.972 with ERG and 1.09 in the assay with ETV4.

For CCACAC, the binding signal in the assay with ERG stood at 1.07; with ETV4, 1.11.

Turning to GTAGCA, the results for the binding signal with ERG, with ETV4 and in the assay with ETV1 were 0.99, 1.08 and 1.11, respectively.

Turning to TACCCC, the binding signal in the assay with ERG came out at 1.07; with ETV4, 1.06.

Take TAGAAA: the binding signal with ERG was found to be 1.04; with ETV4 it was 1.01.

In the case of ATGTTT, the values for the binding signal in the assay with ERG and with ETV4 were 1.39 and 1.43, respectively.

As for TGCTTG, the binding signal with ERG turned out to be 1.15; with ETV4 it was 1.26.

In the case of TTGGCT, the binding signal with ERG turned out to be 0.97; with ETV4 it was 1.09.

Take AGCGAC: the binding signal with ERG and in the assay with ETV4 was 1.23 throughout.

For the sequence GCAATA, the figures for the binding signal with ERG and with ETV4 were 0.984 and 1.05, respectively.

Regarding TGCCTA, the binding signal in the assay with ERG is 0.999; with ETV4, 1.07; in the assay with ETV1, 0.999.

With GTATAC, the binding signal was 1.24 with ERG, 1.25 with ETV4 and 1.31 with ETV1.

Regarding CGTCCA, the binding signal with ERG and with ETV4 was 0.972 throughout.

On to TGGGCT, for which the binding signal was 1.34 with ERG and 1.44 with ETV4.

For the sequence CGGTTT, the binding signal with ERG was found to be 1.33; with ETV4 it was 1.32.

With CGTTCC, the binding signal with ERG stood at 1.45; in the assay with ETV4, 1.42; with ETV1 it was 1.47.

Regarding CATTAG, the binding signal with ERG is 0.963; with ETV4, 1; with ETV1, 0.905.

In the case of CTTGGC, the binding signal stood at 1.12 with ERG, 1.2 in the assay with ETV4 and 1.15 with ETV1.

Regarding GTATGG, the results for the binding signal in the assay with ERG, with ETV4 and in the assay with ETV1 were 0.975, 1.02 and 1.16, respectively.

In the case of TTTGCA, the binding signal was found to be 1.29 in the assay with ERG and 1.27 with ETV4.

Turning to TCACCA, the values for the binding signal in the assay with ERG and with ETV4 were 1.14 and 1.21, respectively.

Consider ACGGTA, for which the binding signal with ERG amounted to 0.972; with ETV4 it was 0.933.

For the sequence CGCGAA, the figures for the binding signal with ERG, with ETV4 and with ETV1 were 0.99, 0.989 and 0.987, respectively.

As for TCACGT, the binding signal stood at 1.29 with ERG and 1.22 with ETV4.

Take AATACC: the binding signal with ERG is 1.21; in the assay with ETV4 it was 1.2.

As for CGCCTA, the values for the binding signal with ERG and in the assay with ETV4 were 1.14 and 1.22, respectively.

For the sequence CATCGC, the binding signal with ERG turned out to be 1.06; with ETV4, 1.07.

Consider TTCCAA, for which the results for the binding signal with ERG and with ETV4 were 1.26 and 1.27, respectively.

For the sequence ACAGGA, the figures for the binding signal with ERG and with ETV4 were 1.22 and 1.08, respectively.

On to GTTCCC, for which the binding signal with ERG stood at 1.25; in the assay with ETV4, 1.28.

For ACCGCC, the binding signal is 1.27 with ERG and 1.25 with ETV4.

On to TGCCGA, for which the binding signal with ERG came out at 1.1; with ETV4 it was 1.12; in the assay with ETV1 it was 1.14; with ERF it was 0.963.

With CGAATG, the binding signal with ERG is 0.907; in the assay with ETV4, 1.02; in the assay with ETV1, 0.986.

Take TCATTG: the binding signal worked out at 0.938 with ERG, 0.941 with ETV4 and 0.946 with ETV1.

Regarding AAGGCT, the binding signal with ERG is 0.963; with ETV4, 1.03; with ETV1 it was 0.974; with ERF it was 0.906.

For the sequence TCTGAG, the binding signal with ERG came out at 0.96; with ETV4, 1.02; in the assay with ETV1 it was 0.924; with ERF, 0.968.

In the case of GATAGC, the binding signal with ERG was 1.02; with ETV4, 0.974; with ETV1 it was 1.02; in the assay with ERF, 1.15.

Consider ACATCG, for which the binding signal with ERG turned out to be 0.954; with ELF1 it was 1.06; with ETV4 it was 1.06; with ETV1, 0.935; with ERF, 1.11.

Turning to AAGGCA, the binding signal with ERG turned out to be 0.969; in the assay with ETV4 it was 1.04; with ETV1, 1.1; in the assay with ERF it was 1.04.

Regarding CACCCT, the binding signal with ERG is 1.16; in the assay with ETV4 it was 1.17; with ETV1 it was 1.24; in the assay with ERF, 1.09.
